Experimental data from the supplement of paper PMC10849652.
The other results are listed elsewhere or left out.

By UniProt entry, the sequences of proteins in these tests, tags left out. Where a name states a change or a piece, a line headed by the entry shows the natural chain unless it says otherwise.
UniProt Q8IWE5: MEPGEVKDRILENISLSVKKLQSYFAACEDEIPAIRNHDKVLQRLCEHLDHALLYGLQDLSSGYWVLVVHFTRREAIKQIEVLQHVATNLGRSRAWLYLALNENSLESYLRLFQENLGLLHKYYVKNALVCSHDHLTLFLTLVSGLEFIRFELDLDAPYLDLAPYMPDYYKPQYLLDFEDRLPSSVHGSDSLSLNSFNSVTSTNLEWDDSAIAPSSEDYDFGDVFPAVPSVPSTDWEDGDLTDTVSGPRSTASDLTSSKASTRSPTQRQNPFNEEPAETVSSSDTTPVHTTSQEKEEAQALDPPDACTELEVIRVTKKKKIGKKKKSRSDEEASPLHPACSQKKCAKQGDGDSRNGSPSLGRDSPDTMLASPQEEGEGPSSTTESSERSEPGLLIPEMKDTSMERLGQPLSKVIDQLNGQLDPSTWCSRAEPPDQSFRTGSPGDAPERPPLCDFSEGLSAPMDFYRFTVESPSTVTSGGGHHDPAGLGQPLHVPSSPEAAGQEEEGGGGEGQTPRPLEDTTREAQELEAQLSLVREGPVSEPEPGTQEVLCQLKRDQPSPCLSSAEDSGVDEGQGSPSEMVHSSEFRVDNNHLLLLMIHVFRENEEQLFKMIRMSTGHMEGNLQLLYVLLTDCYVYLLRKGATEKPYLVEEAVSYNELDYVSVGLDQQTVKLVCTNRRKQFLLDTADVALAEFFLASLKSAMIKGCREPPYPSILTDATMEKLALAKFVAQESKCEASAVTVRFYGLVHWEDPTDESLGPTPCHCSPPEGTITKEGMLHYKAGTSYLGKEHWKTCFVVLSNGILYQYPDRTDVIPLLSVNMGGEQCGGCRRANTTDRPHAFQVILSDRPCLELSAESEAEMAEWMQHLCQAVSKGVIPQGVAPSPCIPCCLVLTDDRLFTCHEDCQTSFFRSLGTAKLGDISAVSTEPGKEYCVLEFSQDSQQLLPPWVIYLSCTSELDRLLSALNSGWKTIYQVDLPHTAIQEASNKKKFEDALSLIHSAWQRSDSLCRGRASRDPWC
UniProt Q9NQ55: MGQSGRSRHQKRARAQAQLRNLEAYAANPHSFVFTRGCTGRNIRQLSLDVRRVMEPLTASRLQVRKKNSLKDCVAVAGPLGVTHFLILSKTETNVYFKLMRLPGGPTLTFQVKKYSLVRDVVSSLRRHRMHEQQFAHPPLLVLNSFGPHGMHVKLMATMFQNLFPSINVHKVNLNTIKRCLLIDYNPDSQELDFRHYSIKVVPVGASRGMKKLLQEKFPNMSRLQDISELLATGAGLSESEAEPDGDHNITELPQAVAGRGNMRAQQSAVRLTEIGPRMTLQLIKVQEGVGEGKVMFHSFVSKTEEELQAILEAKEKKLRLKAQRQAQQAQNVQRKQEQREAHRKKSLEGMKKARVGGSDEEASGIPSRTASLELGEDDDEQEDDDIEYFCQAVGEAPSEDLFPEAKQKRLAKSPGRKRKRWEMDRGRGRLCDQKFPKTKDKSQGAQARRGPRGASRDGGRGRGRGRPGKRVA
UniProt Q9BUI4: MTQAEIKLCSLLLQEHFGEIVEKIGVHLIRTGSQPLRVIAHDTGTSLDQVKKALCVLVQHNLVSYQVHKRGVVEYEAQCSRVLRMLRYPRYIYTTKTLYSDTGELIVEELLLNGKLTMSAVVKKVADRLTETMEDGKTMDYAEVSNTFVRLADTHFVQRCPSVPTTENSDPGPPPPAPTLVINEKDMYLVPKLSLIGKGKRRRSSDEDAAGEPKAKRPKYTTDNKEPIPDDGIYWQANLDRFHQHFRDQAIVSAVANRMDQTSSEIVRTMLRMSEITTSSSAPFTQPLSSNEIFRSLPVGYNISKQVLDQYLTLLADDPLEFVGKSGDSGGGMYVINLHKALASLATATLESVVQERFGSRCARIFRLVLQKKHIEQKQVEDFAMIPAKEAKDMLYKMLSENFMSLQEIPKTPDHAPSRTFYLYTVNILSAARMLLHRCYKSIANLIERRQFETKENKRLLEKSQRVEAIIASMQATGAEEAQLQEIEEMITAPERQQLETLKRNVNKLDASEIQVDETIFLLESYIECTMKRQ
UniProt Q15054: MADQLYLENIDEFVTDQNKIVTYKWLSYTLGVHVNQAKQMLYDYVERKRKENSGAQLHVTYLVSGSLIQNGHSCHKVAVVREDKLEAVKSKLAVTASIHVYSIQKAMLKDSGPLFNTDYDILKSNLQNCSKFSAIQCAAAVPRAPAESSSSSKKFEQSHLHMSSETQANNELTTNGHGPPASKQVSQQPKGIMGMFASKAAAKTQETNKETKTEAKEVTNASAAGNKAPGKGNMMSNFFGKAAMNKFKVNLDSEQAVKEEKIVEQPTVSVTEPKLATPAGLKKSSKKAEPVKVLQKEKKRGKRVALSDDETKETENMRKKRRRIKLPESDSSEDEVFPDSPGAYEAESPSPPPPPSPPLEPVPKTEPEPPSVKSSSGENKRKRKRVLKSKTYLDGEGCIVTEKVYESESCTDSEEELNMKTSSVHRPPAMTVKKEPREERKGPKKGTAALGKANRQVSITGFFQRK
UniProt Q8TF01: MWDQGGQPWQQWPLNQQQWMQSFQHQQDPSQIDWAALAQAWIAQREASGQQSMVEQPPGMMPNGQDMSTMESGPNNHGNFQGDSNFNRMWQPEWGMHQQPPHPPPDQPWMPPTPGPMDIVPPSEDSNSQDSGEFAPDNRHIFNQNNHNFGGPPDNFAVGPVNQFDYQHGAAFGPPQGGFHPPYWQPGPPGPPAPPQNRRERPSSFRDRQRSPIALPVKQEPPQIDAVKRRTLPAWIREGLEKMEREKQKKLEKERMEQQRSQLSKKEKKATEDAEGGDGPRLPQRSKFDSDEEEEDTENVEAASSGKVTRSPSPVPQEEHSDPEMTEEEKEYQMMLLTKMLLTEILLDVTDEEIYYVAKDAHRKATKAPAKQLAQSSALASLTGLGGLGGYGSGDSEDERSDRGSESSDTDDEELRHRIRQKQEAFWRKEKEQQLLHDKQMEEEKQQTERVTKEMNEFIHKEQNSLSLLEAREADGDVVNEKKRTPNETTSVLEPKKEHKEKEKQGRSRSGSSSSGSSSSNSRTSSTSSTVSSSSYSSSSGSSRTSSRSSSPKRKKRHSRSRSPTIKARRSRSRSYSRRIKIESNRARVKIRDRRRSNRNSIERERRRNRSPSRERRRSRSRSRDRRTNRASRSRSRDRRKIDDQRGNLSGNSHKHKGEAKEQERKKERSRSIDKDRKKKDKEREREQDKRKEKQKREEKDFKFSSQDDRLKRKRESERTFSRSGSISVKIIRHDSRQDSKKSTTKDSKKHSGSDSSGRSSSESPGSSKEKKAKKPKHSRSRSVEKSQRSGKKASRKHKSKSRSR
UniProt Q96HA1, whole entry, looked up: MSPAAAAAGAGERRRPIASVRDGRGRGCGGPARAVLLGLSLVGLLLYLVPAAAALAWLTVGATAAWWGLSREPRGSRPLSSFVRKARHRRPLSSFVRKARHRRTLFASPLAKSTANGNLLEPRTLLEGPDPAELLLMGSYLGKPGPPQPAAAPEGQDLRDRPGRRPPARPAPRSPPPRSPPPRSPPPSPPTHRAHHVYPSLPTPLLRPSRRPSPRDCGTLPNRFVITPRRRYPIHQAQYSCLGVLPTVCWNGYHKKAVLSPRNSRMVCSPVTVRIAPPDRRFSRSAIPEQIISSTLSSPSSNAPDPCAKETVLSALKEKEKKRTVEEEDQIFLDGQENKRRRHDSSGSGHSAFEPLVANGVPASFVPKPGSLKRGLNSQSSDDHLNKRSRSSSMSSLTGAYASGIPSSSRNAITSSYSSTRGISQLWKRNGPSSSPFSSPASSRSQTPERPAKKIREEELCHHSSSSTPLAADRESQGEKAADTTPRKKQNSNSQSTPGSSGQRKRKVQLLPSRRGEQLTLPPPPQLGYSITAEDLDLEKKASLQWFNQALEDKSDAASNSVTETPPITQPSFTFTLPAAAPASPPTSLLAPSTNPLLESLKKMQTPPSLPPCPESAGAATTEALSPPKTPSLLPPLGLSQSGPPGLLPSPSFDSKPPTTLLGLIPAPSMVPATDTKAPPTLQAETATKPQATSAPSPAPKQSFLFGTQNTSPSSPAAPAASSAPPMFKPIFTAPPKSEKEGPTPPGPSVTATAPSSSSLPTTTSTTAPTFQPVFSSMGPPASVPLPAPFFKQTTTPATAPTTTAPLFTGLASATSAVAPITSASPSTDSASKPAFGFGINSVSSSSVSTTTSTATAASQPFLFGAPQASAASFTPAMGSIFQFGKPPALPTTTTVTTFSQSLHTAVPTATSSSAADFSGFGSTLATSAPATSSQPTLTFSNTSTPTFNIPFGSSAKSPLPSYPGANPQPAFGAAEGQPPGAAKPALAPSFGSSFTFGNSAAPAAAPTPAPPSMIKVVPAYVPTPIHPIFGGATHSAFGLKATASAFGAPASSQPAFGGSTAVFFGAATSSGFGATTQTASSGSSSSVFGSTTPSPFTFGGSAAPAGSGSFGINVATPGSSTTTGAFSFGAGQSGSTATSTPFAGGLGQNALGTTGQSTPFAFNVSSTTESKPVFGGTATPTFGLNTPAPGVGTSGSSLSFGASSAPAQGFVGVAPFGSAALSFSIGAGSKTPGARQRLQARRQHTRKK
UniProt Q9HAB8: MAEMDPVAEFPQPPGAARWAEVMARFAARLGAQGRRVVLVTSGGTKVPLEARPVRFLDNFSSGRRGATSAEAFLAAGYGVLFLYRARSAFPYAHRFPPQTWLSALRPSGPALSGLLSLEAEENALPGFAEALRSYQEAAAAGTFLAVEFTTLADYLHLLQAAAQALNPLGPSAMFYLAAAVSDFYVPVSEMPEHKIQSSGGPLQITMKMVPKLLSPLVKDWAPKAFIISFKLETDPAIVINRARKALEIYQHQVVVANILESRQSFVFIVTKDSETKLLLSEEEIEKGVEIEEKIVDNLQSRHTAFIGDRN
UniProt O95602, whole entry, looked up: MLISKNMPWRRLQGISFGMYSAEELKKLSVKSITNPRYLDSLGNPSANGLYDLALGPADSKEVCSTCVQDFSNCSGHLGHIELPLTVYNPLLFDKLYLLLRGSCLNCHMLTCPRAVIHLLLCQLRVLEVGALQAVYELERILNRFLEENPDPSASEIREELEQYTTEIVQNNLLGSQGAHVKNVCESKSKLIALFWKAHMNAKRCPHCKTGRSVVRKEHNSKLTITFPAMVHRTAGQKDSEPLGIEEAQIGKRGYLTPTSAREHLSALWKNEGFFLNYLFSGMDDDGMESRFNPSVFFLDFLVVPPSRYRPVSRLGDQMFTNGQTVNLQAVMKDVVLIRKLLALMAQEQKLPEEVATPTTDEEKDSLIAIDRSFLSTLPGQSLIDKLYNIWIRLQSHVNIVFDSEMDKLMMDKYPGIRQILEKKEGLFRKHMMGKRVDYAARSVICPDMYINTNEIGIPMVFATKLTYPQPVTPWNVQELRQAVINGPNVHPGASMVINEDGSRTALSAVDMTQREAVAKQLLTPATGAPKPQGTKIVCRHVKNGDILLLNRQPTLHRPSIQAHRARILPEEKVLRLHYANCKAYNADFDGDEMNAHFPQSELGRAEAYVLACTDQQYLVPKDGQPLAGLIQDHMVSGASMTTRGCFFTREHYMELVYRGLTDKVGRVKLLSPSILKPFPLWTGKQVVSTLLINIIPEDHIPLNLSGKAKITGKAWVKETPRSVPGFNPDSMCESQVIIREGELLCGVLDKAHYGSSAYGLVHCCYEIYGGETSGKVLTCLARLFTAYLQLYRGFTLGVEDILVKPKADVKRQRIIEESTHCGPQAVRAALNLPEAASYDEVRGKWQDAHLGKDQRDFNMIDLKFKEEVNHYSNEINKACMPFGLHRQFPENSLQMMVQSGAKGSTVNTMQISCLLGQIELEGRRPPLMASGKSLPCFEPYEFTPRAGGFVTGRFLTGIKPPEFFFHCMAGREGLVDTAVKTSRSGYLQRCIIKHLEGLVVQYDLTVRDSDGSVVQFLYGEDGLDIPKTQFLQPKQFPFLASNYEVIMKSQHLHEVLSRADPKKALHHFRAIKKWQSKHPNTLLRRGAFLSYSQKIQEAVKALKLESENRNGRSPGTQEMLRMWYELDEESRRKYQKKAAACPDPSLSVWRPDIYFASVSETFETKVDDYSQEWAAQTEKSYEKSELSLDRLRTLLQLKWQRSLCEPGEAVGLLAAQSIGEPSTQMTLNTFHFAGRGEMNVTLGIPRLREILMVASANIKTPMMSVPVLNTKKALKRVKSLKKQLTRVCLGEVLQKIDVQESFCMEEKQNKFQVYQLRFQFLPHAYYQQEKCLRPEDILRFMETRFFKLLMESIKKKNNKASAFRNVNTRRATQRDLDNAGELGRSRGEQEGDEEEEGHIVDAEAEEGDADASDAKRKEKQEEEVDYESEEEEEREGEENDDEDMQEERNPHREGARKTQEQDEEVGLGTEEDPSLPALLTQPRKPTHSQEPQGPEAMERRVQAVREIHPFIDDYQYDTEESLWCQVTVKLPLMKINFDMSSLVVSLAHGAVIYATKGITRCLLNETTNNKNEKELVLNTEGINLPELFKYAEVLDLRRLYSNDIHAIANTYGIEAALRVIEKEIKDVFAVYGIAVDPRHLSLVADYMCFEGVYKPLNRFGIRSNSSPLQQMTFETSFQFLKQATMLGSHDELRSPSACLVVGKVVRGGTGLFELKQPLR

compound: C1COCCN1CCN2C3=CC=CC=C3N=C2NC(=O)C4=CC(=CC=C4)[N+](=O)[O-] [IRAK-1-4 Inhibitor I]; experiment: log2 fold change, soluble protein after heating vs DMSO (PISA); higher = thermal stabilisation; K562 lysate, 10 uM; active = over 0.2 and 3.5 SD of the protein, either way, in both replicates (recomputed)
Summary of the method: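 K562 pellets were dounce-homogenised in PBS pH 7.4 with 1 mM MgCl2, and the crude extract at 1 mg/mL protein was treated with 10 μM compound for 30 min. Aliquots were heated for 3 min across 48°C-58°C, pooled, and brought to 0.5% NP-40 at 4°C; soluble protein was the supernatant after 21,000xg for 90 min. Soluble protein was quantified by TMTpro 16plex LC-MS/MS with channel sums equalised, and reported as log2 fold change in thermal stability against DMSO controls, with values from duplicates.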

log2 fold change, inactive:
PLEKHM2 (UniProt Q8IWE5) 0.029
PPAN isoform 3 (UniProt Q9NQ55) 0.019
POTEF (UniProt A5A3E0) 0.012
POLE3 (UniProt Q9NRF9) 0.013
PLGRKT (UniProt Q9HBL7) -0.011
POGLUT3 (UniProt Q7Z4H8) -0.011
POMGNT1 isoform 2 (UniProt Q8WZA1) 0.263
PMPCB (UniProt O75439) 0
POLR3K (UniProt Q9Y2Y1) -0.056
PNN (UniProt Q9H307) -0.009
POU2F1 isoform 6 (UniProt P14859) 0.021
PMM1 (UniProt Q92871) -0.013
PMPCA (UniProt Q10713) 0.007
POLR3C (UniProt Q9BUI4) -0.031
PNPLA8 (UniProt Q9NP80) -0.03
PLXNA3 (UniProt P51805) 0.021
POLD3 (UniProt Q15054) -0.035
PPID (UniProt Q08752) -0.002
PNISR (UniProt Q8TF01) 0.002
POP1 (UniProt Q99575) 0.021
POLR3F (UniProt Q9H1D9) 0.013
PMS2 (UniProt P54278) 0.001
POLR2H (UniProt P52434) 0.011
PPIA (UniProt P62937) -0.014
POLR3B (UniProt Q9NW08) -0.023
POGLUT1 (UniProt Q8NBL1) -0.064
POMP (UniProt Q9Y244) -0.023
PLOD1 (UniProt Q02809) 0.009
POLE4 (UniProt Q9NR33) 0.039
POLR2A, A0A590UJN4 0
PPFIA2 (UniProt O75334) -0.022
POLR1D (UniProt P0DPB6) 0.018
PNPT1 (UniProt Q8TCS8) -0.006
PODXL2 (UniProt Q9NZ53) -0.148
POLR3D (UniProt P05423) 0.011
POM121 (UniProt Q96HA1) 0.163
PMF1 (UniProt Q6P1K2) 0.009
PPCS (UniProt Q9HAB8) -0.009
POLR1A (UniProt O95602) -0.001

3 entries drawn at random from the list so far:
log2 fold change, inactive:
POLE4 (UniProt Q9NR33) 0.039
POLR3F (UniProt Q9H1D9) 0.013
PLEKHM2 (UniProt Q8IWE5) 0.029
